For some assays here: Negatives hold for the conditions tested. At least one verdict was read from the data and is not stated in words by the source. For some assays here: The exact form of at least one protein or probe is not confirmed.
Assays:
TDP-43 RRM1-2 P112H = TDP-43 RRM1-2 P112H (UniProt Q13148); assay: fluorescence anisotropy; conditions: legend says Fl-(UG)4; Anisotropy: 50 mM Tris, 100 mM NaCl, pH 8.0, 10 C, 0.1 uM probe, 0-30 uM protein (RNasin for RNA); recombinant protein; residues 96-267; protein details: GSSGSSG linker, His removed by thrombin; label: 5'-fluorescein; single-stranded DNA
TDP-43 RRM1-2 R151A = TDP-43 RRM1-2 R151A (UniProt Q13148); assay: fluorescence anisotropy; conditions: Anisotropy: 50 mM Tris, 100 mM NaCl, pH 8.0, 10 C, 0.1 uM probe, 0-30 uM protein (RNasin for RNA); recombinant protein; residues 96-267; protein details: GSSGSSG linker, His removed by thrombin; label: 5'-fluorescein; single-stranded DNA
TDP-43 RRM1-2 = TDP-43 RRM1-2 (UniProt Q13148); assay: pull-down; conditions: pull-down: same buffer on Ni resin, room temperature, 1 h, eluted with 1 M NaCl; recombinant protein; residues 96-267; single-stranded DNA
TDP-43 RRM2 = TDP-43 RRM2 (UniProt Q13148); assay: pull-down; conditions: pull-down: same buffer on Ni resin, room temperature, 1 h, eluted with 1 M NaCl; recombinant protein; residues 186-267; single-stranded DNA
[1] = system: TDP-43 RRM2-1 (swapped order); assay: pull-down; conditions: pull-down: same buffer on Ni resin, room temperature, 1 h, eluted with 1 M NaCl; recombinant protein; protein details: N-term His6; single-stranded DNA

## TGTGTGTG [Fl-(TG)4 ssDNA]
TDP-43 RRM1-2 P112H
  binding result: binds
TDP-43 RRM1-2 R151A
  binding result: binds

## AAAAAAAAAAAAAAAAAAAAAAAAAAAAAA [A10(AA)5A10]
TDP-43 RRM1-2
  binding result: no binding
TDP-43 RRM2
  binding result: no binding
[1]
  binding result: binds

Reference: publication PMC4738331, “A molecular mechanism realizing sequence-specific recognition of nucleic acids by TDP-43”
